This note sets out measurements from the supplement of paper PMC8728848.

Holding throughout (test): glycan array binding signal (z-score within array); higher = stronger binding
Conditions in all cases: glycan notation: IUPAC condensed, linker removed

The target of assay [1] is Gal(b1-4)GlcNAc(b1-3)Gal(b1-4)GlcNAc(b1-3)Gal(b1-4)GlcNAc(b1-3)Gal(b1-4)GlcNAc(b1-2)Man(a1-3)[Gal(b1-4)GlcNAc(b1-3)Gal(b1-4)GlcNAc(b1-3)Gal(b1-4)GlcNAc(b1-3)Gal(b1-4)GlcNAc(b1-2)Man(a1-6)]Man(b1-4)GlcNAc(b1-4)[Fuc(a1-6)]GlcNAc. A digest of the protocol:
(§1)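 The binding signal is a Z-score computed within each array. Data were drawn from 3228 arrays in the Consortium for Functional Glycomics database, restricted to those with a known protein sequence. Scores were averaged over arrays of the same protein sequence at different concentrations or buffers, and over linkers, and negative values can be taken as non-binding.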

The target of assay [2] is Gal(b1-4)GlcNAc(b1-3)Gal(b1-4)GlcNAc(b1-3)Gal(b1-4)GlcNAc(b1-3)Gal(b1-4)GlcNAc(b1-2)[Gal(b1-4)GlcNAc(b1-3)Gal(b1-4)GlcNAc(b1-3)Gal(b1-4)GlcNAc(b1-3)Gal(b1-4)GlcNAc(b1-6)]Man(a1-6)[Gal(b1-4)GlcNAc(b1-3)Gal(b1-4)GlcNAc(b1-3)Gal(b1-4)GlcNAc(b1-3)Gal(b1-4)GlcNAc(b1-2)Man(a1-3)]Man(b1-4)GlcNAc(b1-4)[Fuc(a1-6)]GlcNAc. The method, boiled down: as §1
Assay [3] has as its target Gal(b1-4)GlcNAc(b1-3)Gal(b1-4)GlcNAc(b1-3)Gal(b1-4)GlcNAc(b1-3)Gal(b1-4)GlcNAc(b1-3)Gal(b1-4)GlcNAc(b1-2)Man(a1-3)[Gal(b1-4)GlcNAc(b1-3)Gal(b1-4)GlcNAc(b1-3)Gal(b1-4)GlcNAc(b1-3)Gal(b1-4)GlcNAc(b1-3)Gal(b1-4)GlcNAc(b1-2)Man(a1-6)]Man(b1-4)GlcNAc(b1-4)GlcNAc. The method, boiled down: as §1
Assay [4] deals with Gal(b1-4)GlcNAc(b1-3)Gal(b1-4)GlcNAc(b1-3)Gal(b1-4)GlcNAc(b1-3)Gal(b1-4)GlcNAc(b1-3)Gal(b1-4)GlcNAc(b1-2)Man(a1-3)[Gal(b1-4)GlcNAc(b1-3)Gal(b1-4)GlcNAc(b1-3)Gal(b1-4)GlcNAc(b1-3)Gal(b1-4)GlcNAc(b1-3)Gal(b1-4)GlcNAc(b1-2)Man(a1-6)]Man(b1-4)GlcNAc(b1-4)[Fuc(a1-6)]GlcNAc. The method, boiled down: as §1
The target of assay [5] is Gal(b1-4)GlcNAc(b1-3)Gal(b1-4)GlcNAc(b1-3)Gal(b1-4)GlcNAc(b1-3)Gal(b1-4)GlcNAc(b1-3)Gal(b1-4)GlcNAc(b1-2)[Gal(b1-4)GlcNAc(b1-3)Gal(b1-4)GlcNAc(b1-3)Gal(b1-4)GlcNAc(b1-3)Gal(b1-4)GlcNAc(b1-3)Gal(b1-4)GlcNAc(b1-6)]Man(a1-6)[Gal(b1-4)GlcNAc(b1-3)Gal(b1-4)GlcNAc(b1-3)Gal(b1-4)GlcNAc(b1-3)Gal(b1-4)GlcNAc(b1-3)Gal(b1-4)GlcNAc(b1-2)Man(a1-3)]Man(b1-4)GlcNAc(b1-4)[Fuc(a1-6)]GlcNAc. The method, boiled down: as §1

Assay [6] has as its target Gal(b1-4)GlcNAc(b1-3)Gal(b1-4)GlcNAc(b1-3)Gal(b1-4)GlcNAc(b1-3)Gal(b1-4)GlcNAc(b1-3)Gal(b1-4)GlcNAc(b1-3)Gal(b1-4)GlcNAc(b1-2)Man(a1-3)[Gal(b1-4)GlcNAc(b1-3)Gal(b1-4)GlcNAc(b1-3)Gal(b1-4)GlcNAc(b1-3)Gal(b1-4)GlcNAc(b1-3)Gal(b1-4)GlcNAc(b1-3)Gal(b1-4)GlcNAc(b1-2)Man(a1-6)]Man(b1-4)GlcNAc(b1-4)GlcNAc. A digest of the protocol:
as §1

Assay [7] concerns the target Gal(b1-4)GlcNAc(b1-3)Gal(b1-4)GlcNAc(b1-3)GalNAc. A digest of the protocol: as §1
The target of assay [8] is Gal(b1-4)GlcNAc(b1-3)Gal(b1-4)GlcNAc(b1-3)[Gal(b1-4)GlcNAc(b1-3)Gal(b1-4)GlcNAc(b1-6)]GalNAc. The method, boiled down: as §1
Assay [9] has as its target Gal(b1-4)GlcNAc(b1-3)Gal(b1-4)GlcNAc(b1-6)[Gal(b1-3)]GalNAc. A digest of the protocol: as §1
Assay [10] addresses Gal(b1-4)GlcNAc(b1-3)Gal(b1-4)[Fuc(a1-3)]GlcNAc(b1-3)Gal(b1-4)[Fuc(a1-3)]GlcNAc. The method, boiled down:
as §1

In assay [11] the target is Gal(b1-4)GlcNAc(b1-3)GalNAc. A digest of the protocol: as §1
Assay [12] concerns the target Gal(b1-4)GlcNAc(b1-3)[Fuc(a1-3)GlcNAc(b1-6)]Gal(b1-4)Glc. The method, boiled down:
as §1

Assay [13] addresses Gal(b1-4)GlcNAc(b1-3)[Gal(b1-4)GlcNAc(b1-6)]Gal(b1-4)GlcNAc. A digest of the protocol:
as §1

The target of assay [14] is Gal(b1-4)GlcNAc(b1-3)[GlcNAc(b1-6)]Gal(b1-4)GlcNAc. A digest of the protocol:
as §1

Assay [15] addresses Gal(b1-4)GlcNAc(b1-6)Gal(b1-4)GlcNAc. The method, boiled down:
as §1

Assay [16] addresses Gal(b1-4)GlcNAc(b1-6)GalNAc. A digest of the protocol: as §1
Assay [17] concerns the target Gal(b1-4)GlcNAc(b1-6)[Gal(b1-3)]GalNAc. The method, boiled down:
as §1

Assay [18] has as its target Gal(b1-4)GlcNAc(b1-6)[Gal(b1-4)GlcNAc(b1-3)]GalNAc. A digest of the protocol: as §1
The target of another assay is Gal(b1-4)GlcNAc6P. A digest of the protocol:
as §1

For the next assay, the target named is Gal(b1-6)Gal. The method, boiled down:
as §1

A further assay has as its target Gal3S(b1-3)GalNAc. The method, boiled down:
as §1

Another assay concerns the target Gal3S(b1-3)GlcNAc. The method, boiled down:
as §1

Assay [19] has as its target Gal3S(b1-3)[Fuc(a1-4)]GlcNAc. A digest of the protocol:
as §1

The other results are listed elsewhere or left out.

B1: PhypaEULS3 (Physcomitrella patens) (protein)
chain: MLPVRLHCKADPNFNLAAVPGQGPVMVPFSPNDDFQVWYKDVTMSTRVKDETGSSAFSLINKATGQALRHAPEDLAQCLLADYDSNALDQTVLWTMSEDMGQGYCCIRLASQITRNLDVFRGDKKSGGVKEGSPVITFAWKKQDNQIWKMITAILEQKLISEEDLNSAVDHHHHHH
Turning to B1, the “glycan array binding signal (z-score)” value in assay [1] is -0.557; in assay [2], -1.45; in [3], -0.151; in [4] it was -0.139; in assay [5], -1.24; in [6] it was -1.31. Moreover, the “glycan array binding signal (z-score)” value in assay [7] is 2; in assay [8], 1.52; in assay [9], 1.3; in assay [10], -1.04; in assay [11] it was -1.07; in assay [12] it was 1.35. For the same molecule, the “glycan array binding signal (z-score)” value in [13] is -0.319; in assay [14], 0.751; in assay [15], -0.462; in assay [16], -1.37; in [17], 0.337; in assay [18], -0.325. Besides, the “glycan array binding signal (z-score)” value is -1.38 with Gal(b1-4)GlcNAc6P; 0.62 with Gal(b1-6)Gal; -0.127 with Gal3S(b1-3)GalNAc; 0.616 with Gal3S(b1-3)GlcNAc; -0.439 in assay [19].
